{"source": "patent US20260083848A1", "about": "“COMBINATION OF CAR T-CELL THERAPY WITH BTK INHIBITORS AND METHODS OF USE THEREOF” (priority 2021, published 2026)", "tested_on": "CART19 cells", "experiment": "RNA-sequencing of CART19 cells co-cultured with irradiated JeKo cells", "assay_type": "cell-based, human", "conditions": "10 μM, 72 hours, vs DMSO control", "data": [{"molecule": "NC(=O)[C@H]1CCN(c2ncnc(N)c2F)C[C@@H]1N1CCC[C@@H](Nc2cc(Cl)cc(C(F)(F)F)c2)C1=O", "note": "[vecabrutinib, (3R,3′R,4′S)-1′-(6-amino-5-fluoropyrimidin-4-yl)-3-((3-chloro-5-(trifluoromethyl)phenyl)amino)-2-oxo-[1,3′-bipiperidine]-4′-carboxamide]", "values": [{"measurement": "genes downregulated", "result": "approximately 400 genes"}, {"measurement": "genes involved in the PI3K/AKT pathway and the Th1 pathway", "result": "upregulated"}, {"measurement": "genes upregulated", "result": "approximately 400 genes"}, {"measurement": "genes differentially regulated", "setting": "FIG. 5", "result": "approximately 800 genes"}]}]}
